In patent publication US5698670A (priority 1993, dated 1997):
Strings that start with PEPTIDE1 are HELM notation: dots part the residues, brackets hold end groups and non-standard residues.

Assay: general procedure: solution-phase peptide synthesis; PyBroP/DIEA; HOOBt/water-soluble carbodiimide
Conditions: for cyclisation yield: cyclisation step

“Boc-L -Leu-L -βHOMeVal-D -Hmp-L -MeVal-L -Phe-D -MeAla-L -Pro-OPac” showed a step yield (coupling step) of 75.5%.
For “Boc-L -MeVal-L -Phe-D -MeAla-L -Pro-OPac”, the step yield (coupling step) was 82.3%.
“Boc-L -aIle-L -MeVal-L -Leu-L -βHOMeVal-D -Hmp-L -MeVal-L -Cha-D -MeAla-L -Pro-OPac” showed a step yield (coupling step) of 89.2%.
Substance “Boc-L -aIle-L -MeVal-L -Leu-L -βHOMeVal-D -Hmp-L -MeVal-L -Cha-D -MeSer(Bzl)-L -Pro-OPac” has a step yield (coupling step) of 80.7%.
Substance “Boc-L -aIle-L -MeVal-L -Leu-L -βHOMeVal-D -Hmp-L -MeVal-L -Cha-D -MeVal-L -Pro-OPac” has a step yield (coupling step) of 67.9%.
“Boc-L -aIle-L -MeVal-L -Leu-L -βHOMeVal-D -Hmp-L -MeVal-L -Cha-L -MePhe-L -Pro-OPac” gave a step yield (coupling step) of 68.8%.
Work on “Boc-L -aIle-L -MeVal-L -Leu-L -βHOMeVal-D -Hmp-L -MeVal-L -Leu-D -MeAla-L -Pro-OPac” yielded a step yield (coupling step) of 55.5%.
Substance “Boc-L -aIle-L -MeVal-L -Leu-L -βHOMeVal-D -Hmp-L -MeVal-L -Phe-D -MeAla-L -Pro-OPac” has a step yield (coupling step) of 85.1%.
For “Boc-L -aIle-L -MeVal-L -Leu-L -βHOMeVal-D -Hmp-L -MeVal-L -Phe-D -MeVal-L -Pro-OPac”, the step yield (coupling step) was 62.3%.
Substance “Boc-L -aIle-L -MeVal-L -Leu-L -βHOMeVal-D -Hmp-L -MeVal-L -Ser(Bzl)-D -MeAla-L -Pro-OPac” has a step yield (coupling step) of 77.1%.
Substance “Boc-L -aIle-L -MeVal-L -Leu-L -βHOMeVal-D -Hmp-L -MeVal-L -Tyr(Bzl)-D -MeAla-L -Pro-OPac” has a step yield (coupling step) of 74.3%.
“Boc-L -aIle-L -MeVal-L -Leu-L -βHOMeVal-D -Hmp-L -MeVal-L -Tyr(c-C6 H11 --CH2 --)-D -MeAla-L -Pro-OPac” showed a step yield (coupling step) of 91.2%.
“Boc-L -aIle-L -MeVal-L -Leu-L -βHOMeVal-D -Hmp-L -MeVal-L -pFPhe-D -MeAla-L -Pro-OPac” gave a step yield (coupling step) of 88.7%.
For “Boc-L -aIle-L -MeVal-L -Leu-L -βHOMeVal-D -Hmp-L -MeVal-OH”, the step yield (late stage modification step) was 77.8%.
Work on “Cyclo (L -aIle-L -MeVal-L -Leu-L -βHOMeVal-D -Hmp-L -MeVal-L -Phe-D -MeAla-L -Pro)” yielded a cyclisation yield of 55.5%.
Work on “H-L -Phe-L -MePhe-L -Pro-L -aIle-L -MeVal-L -Leu-L -βHOMeVal-D -Hmp-L -MeVal-OH” yielded a step yield (late stage modification step) of 29.7%.
“HCl. H-L -MeVal-L -Phe-D -MeAla-L -Pro-OPac” gave a step yield (late stage modification step) of 92.7%.
“HCl.H-L -H-L -Leu-L -βHOMeVal-D -Hmp-L -MeVal-L -Phe-D -MeAla-L -Pro-OPac” gave a step yield (late stage modification step) of 74.2%.
Substance “HCl.H-L -aIle-L -MeVal-L -Leu-L -B HOMeVal-D -Hmp-L -MeVal-L -pFPhe-D -MeAla-L -Pro-OH” has a step yield (late stage modification step) of 96.1%.
In the case of “HCl.H-L -aIle-L -MeVal-L -Leu-L -βHOMeVal-D -Hmp-L -MeVal-L -Cha-D -MeAla-L -Pro-OH”, the step yield (late stage modification step) is reported as 90.3%.
With “HCl.H-L -aIle-L -MeVal-L -Leu-L -βHOMeVal-D -Hmp-L -MeVal-L -Cha-D -MeSer(Bzl)-L -Pro-OH” the step yield (late stage modification step) was 78.0%.
“HCl.H-L -aIle-L -MeVal-L -Leu-L -βHOMeVal-D -Hmp-L -MeVal-L -Cha-D -MeVal-L -Pro-OH” gave a step yield (late stage modification step) of 86.4%.
For “HCl.H-L -aIle-L -MeVal-L -Leu-L -βHOMeVal-D -Hmp-L -MeVal-L -Cha-L -MePhe-L -Pro-OH”, the step yield (late stage modification step) was 100%.
Work on “HCl.H-L -aIle-L -MeVal-L -Leu-L -βHOMeVal-D -Hmp-L -MeVal-L -Leu-D -MeAla-L -Pro-OH” yielded a step yield (late stage modification step) of 93.2%.
For “HCl.H-L -aIle-L -MeVal-L -Leu-L -βHOMeVal-D -Hmp-L -MeVal-L -Phe-D -MeAla-L -Pro-OH”, the step yield (late stage modification step) was 78.7%.
With “HCl.H-L -aIle-L -MeVal-L -Leu-L -βHOMeVal-D -Hmp-L -MeVal-L -Phe-D -MeVal-L -Pro-OH” the step yield (late stage modification step) was 73.6%.
For “HCl.H-L -aIle-L -MeVal-L -Leu-L -βHOMeVal-D -Hmp-L -MeVal-L -Ser(Bzl)-D -MeAla-L -Pro-OH”, the step yield (late stage modification step) was 82.8%.
For “HCl.H-L -aIle-L -MeVal-L -Leu-L -βHOMeVal-D -Hmp-L -MeVal-L -Tyr(Bzl)-D -MeAla-L -Pro-OH”, the step yield (late stage modification step) was 96.1%.
In the case of “HCl.H-L -aIle-L -MeVal-L -Leu-L -βHOMeVal-D -Hmp-L -MeVal-L -Tyr(c-C6 H11 --CH2 --)-D -MeAla-L -Pro-OH”, the step yield (late stage modification step) is reported as 80.8%.
Work on “HCl.H-L -aIle-L -MeVal-L -Leu-L -βHOMeVal-D -Hmp-L -MeVal-OH” yielded a step yield (late stage modification step) of 100%.
Work on “PEPTIDE1{[aIle].[MeVal].L.[bHOMeVal].[D-Hmp].[MeVal].F.[D-MeVal].P}$PEPTIDE1,PEPTIDE1,1:R1-9:R2$$$V2.0” yielded a cyclisation yield of 35.0%.
With “PEPTIDE1{[aIle].[MeVal].L.[bHOMeVal].[D-Hmp].[MeVal].L.[D-MeAla].P}$PEPTIDE1,PEPTIDE1,1:R1-9:R2$$$V2.0” the cyclisation yield was 39.4%.
Work on “PEPTIDE1{[aIle].[MeVal].L.[bHOMeVal].[D-Hmp].[MeVal].[Ser(Bzl)].[D-MeAla].P}$PEPTIDE1,PEPTIDE1,1:R1-9:R2$$$V2.0” yielded a cyclisation yield of 45.2%.
In the case of “PEPTIDE1{[aIle].[MeVal].L.[bHOMeVal].[D-Hmp].[MeVal].[Tyr(Bzl)].[D-MeAla].P}$PEPTIDE1,PEPTIDE1,1:R1-9:R2$$$V2.0”, the cyclisation yield is reported as 41.5%.
In the case of “PEPTIDE1{[aIle].[MeVal].L.[bHOMeVal].[D-Hmp].[MeVal].[Tyr(Me)].[D-MeAla].P}$PEPTIDE1,PEPTIDE1,1:R1-9:R2$$$V2.0”, the step yield (late stage modification step) is reported as 69.1%.
In the case of “PEPTIDE1{[aIle].[MeVal].L.[bHOMeVal].[D-Hmp].[MeVal].[pFPhe].[D-MeAla].P}$PEPTIDE1,PEPTIDE1,1:R1-9:R2$$$V2.0”, the cyclisation yield is reported as 29.8%.
Work on “Z-L -Phe-L -MePhe-L -Pro-L -aIle-L -MeVal-L -Leu-L -βHOMeVal-D -Hmp-L -MeVal-OH” yielded a step yield (late stage modification step) of 81.5%.
For “cyclo(L -aIle-L -MeVal-L -Leu-L -βHOMeVal-D -Hmp-L -MeVal-L -Cha-D -MeAla-L -Pro)”, the cyclisation yield was 28.6%.
“cyclo(L -aIle-L -MeVal-L -Leu-L -βHOMeVal-D -Hmp-L -MeVal-L -Cha-D -MeSer(Bzl)-L -Pro)” gave a cyclisation yield of 34.3%.
With “cyclo(L -aIle-L -MeVal-L -Leu-L -βHOMeVal-D -Hmp-L -MeVal-L -Cha-D -MeSer-L -Pro)” the step yield (late stage modification step) was 80.5%.
“cyclo(L -aIle-L -MeVal-L -Leu-L -βHOMeVal-D -Hmp-L -MeVal-L -Cha-D -MeVal-L -Pro)” showed a cyclisation yield of 20.5%.
With “cyclo(L -aIle-L -MeVal-L -Leu-L -βHOMeVal-D -Hmp-L -MeVal-L -Cha-L -MePhe-L -Pro)” the cyclisation yield was 23.9%.
“cyclo(L -aIle-L -MeVal-L -Leu-L -βHOMeVal-D -Hmp-L -MeVal-L -Tyr(c-C6 H11 --CH2 --)-D -MeAla-L -Pro)” gave a cyclisation yield of 52.3%.
Work on “cyclo(L -aIle-L -MeVal-L -Leu-L -βHOMeVal-D -Hmp-L -MeVal-L -Tyr-D -MeAla-L -Pro)” yielded a step yield (late stage modification step) of 90.6%.
